No constants are given. Whether binding was seen depends on the method and setting. In cells and extracts the contact can be indirect. For some of these results: Where a sequence is shown, tags or fusion partners need not be part of it.
Assays:
Myc-Numblike = molecular target: T1, Myc-Numblike (UniProt O08919); assay: co-IP; AD293 cells cotransfected with Myc-tagged and EGFP-tagged plasmids, harvested 24 hours after transfection; NP-40 lysis buffer, anti-Myc-Tag, Protein A/G beads, Western blot
T1 sequence: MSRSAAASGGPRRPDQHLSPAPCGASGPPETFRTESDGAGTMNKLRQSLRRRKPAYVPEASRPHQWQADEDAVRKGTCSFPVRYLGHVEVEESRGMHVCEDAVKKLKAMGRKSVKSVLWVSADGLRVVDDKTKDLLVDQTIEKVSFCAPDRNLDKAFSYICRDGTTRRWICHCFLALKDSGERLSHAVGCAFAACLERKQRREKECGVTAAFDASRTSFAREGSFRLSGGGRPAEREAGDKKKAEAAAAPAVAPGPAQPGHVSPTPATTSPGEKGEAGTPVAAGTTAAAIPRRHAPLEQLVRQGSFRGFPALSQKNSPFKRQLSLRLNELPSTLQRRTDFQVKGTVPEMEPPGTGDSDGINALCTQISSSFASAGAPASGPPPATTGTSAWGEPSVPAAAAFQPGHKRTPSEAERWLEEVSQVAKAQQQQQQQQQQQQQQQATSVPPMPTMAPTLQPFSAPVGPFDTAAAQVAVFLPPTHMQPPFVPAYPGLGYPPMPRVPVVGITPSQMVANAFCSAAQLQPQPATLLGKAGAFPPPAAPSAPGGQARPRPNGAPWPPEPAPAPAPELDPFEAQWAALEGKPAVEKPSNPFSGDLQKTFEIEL

Amino acid sequences for entries named in this document (tags omitted). A change or cut given only in a name is not applied to a line headed by its entry. Chains listed by the source or under a name are the forms on record and can include a tag or linker.
Myc-Numb65 (Q9QZS3, form named): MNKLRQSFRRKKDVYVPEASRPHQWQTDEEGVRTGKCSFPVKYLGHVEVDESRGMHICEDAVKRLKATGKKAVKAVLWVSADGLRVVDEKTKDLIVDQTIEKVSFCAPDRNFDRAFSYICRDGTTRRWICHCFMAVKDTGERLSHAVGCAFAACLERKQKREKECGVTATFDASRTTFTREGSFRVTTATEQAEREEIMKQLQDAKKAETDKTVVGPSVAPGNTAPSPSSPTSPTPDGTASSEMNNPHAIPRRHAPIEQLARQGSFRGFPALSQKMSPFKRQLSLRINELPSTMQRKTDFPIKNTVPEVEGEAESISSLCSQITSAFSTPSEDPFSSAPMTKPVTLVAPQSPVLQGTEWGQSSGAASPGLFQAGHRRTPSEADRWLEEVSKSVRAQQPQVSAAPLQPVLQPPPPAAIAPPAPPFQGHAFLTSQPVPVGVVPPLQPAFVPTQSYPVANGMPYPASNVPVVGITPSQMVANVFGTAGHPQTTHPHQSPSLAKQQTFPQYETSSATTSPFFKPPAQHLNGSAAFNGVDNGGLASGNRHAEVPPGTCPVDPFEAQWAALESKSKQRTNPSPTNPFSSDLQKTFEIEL
UniProt Q9JI91: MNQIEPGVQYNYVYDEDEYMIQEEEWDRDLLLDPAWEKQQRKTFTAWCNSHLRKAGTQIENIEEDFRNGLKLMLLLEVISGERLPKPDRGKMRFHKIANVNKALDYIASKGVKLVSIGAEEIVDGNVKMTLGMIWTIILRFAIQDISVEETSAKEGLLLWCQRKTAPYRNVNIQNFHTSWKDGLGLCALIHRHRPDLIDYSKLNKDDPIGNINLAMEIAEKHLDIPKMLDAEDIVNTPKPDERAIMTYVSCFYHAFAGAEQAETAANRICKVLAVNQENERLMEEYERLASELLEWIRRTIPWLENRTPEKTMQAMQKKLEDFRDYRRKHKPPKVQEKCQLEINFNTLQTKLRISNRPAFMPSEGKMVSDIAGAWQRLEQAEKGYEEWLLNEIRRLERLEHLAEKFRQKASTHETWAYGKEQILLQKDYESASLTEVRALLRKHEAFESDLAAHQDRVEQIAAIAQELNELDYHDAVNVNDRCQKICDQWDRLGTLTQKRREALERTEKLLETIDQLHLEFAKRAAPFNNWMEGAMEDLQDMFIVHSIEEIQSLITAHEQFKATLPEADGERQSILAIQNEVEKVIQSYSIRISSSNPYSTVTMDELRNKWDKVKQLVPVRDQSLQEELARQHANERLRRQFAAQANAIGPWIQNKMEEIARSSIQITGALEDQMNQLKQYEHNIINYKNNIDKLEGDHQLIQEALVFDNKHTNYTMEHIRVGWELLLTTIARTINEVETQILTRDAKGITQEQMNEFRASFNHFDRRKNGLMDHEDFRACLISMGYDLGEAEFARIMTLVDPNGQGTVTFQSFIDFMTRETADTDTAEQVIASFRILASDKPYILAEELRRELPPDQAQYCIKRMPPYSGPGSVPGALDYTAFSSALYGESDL
UniProt O88990: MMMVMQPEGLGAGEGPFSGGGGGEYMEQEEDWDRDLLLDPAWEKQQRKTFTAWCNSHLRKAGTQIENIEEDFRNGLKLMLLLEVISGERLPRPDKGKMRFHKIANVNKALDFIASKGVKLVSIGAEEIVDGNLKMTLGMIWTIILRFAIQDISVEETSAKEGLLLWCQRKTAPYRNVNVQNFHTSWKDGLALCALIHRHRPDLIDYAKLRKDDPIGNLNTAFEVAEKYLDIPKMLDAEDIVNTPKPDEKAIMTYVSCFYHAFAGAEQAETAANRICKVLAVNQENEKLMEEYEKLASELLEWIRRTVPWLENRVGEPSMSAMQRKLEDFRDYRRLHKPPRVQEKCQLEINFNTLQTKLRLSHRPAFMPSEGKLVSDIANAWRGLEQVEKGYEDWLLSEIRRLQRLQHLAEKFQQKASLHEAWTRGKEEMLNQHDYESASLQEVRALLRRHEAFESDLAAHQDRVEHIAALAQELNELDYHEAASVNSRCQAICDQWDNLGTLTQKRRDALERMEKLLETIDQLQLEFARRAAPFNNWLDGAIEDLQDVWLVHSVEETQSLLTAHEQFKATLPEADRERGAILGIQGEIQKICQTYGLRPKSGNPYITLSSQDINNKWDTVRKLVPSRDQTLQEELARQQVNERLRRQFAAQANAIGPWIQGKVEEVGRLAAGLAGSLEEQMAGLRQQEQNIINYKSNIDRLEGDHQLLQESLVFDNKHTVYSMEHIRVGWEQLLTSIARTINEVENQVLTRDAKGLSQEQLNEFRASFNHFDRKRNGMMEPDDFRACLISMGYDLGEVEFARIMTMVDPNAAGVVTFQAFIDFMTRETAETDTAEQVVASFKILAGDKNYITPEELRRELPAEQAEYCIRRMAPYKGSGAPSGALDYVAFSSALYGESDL

Myc-Numb65 = Myc-Numb65 (UniProt Q9QZS3); assay: as above

Row | binding (Myc-Numblike) | binding (Myc-Numb65) | Substance
1 | no binding | no binding | EGFP-ACTN2 (from UniProt Q9JI91 1-894)
2 | no binding | no binding | EGFP-ACTN3 (from UniProt O88990 1-900)

— paper PMC8803338
